Measurements published in PubChem BioAssay AID504444 (National Center for Advancing Translational Sciences (NCATS), 2011).
Screen size: about 360,000 compounds; about 7,500 (2.1%) were called active. Inconclusive means that the source gave no clear call. Such entries were picked first, then a sample of the others. Calls come from the whole dose curve; as a rule, active = well fitted inhibition curve with a large enough effect; inconclusive = small, poorly fitted or top-dose-only effect, or effect the other way; inactive = flat fitted curve, though single readings scatter. Where the call is inconclusive, the potency comes from a doubtful curve fit. A structure can be active in one record and inactive in another.

assay: Nrf2 qHTS screen for inhibitors; settings: A549 ARE-Fluc reporter, luciferase luminescence, 18-24 h; series mostly up to 46 µM; note: nearly all actives have a fitted effect of over 60% in size
Procedure, shortened: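 Nrf2 function is reported as luminescence of an ARE-controlled luciferase in A549 cells. Compounds were tested at several concentrations, and a CellTiter-Fluor read on the same wells flagged cytotoxicity.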
Potency is the fitted concentration of half-maximal effect.

Compound	Potency
Cc1cc(C(=O)N/N=C/c2ccc([N+](=O)[O-])s2)n[nH]1	inconclusive: 29.1 µM [falling, partial curve, poor fit]
O=C(NNC1=C(C(=O)C(F)(F)F)CCC1)c1ccccc1Cl	inconclusive: 29.1 µM [falling, single point]
C/C(CC1(O)C(=O)N(C)c2ccccc21)=N\O (configuration not stated)	inconclusive: 6.51 µM [falling, partial curve, poor fit]
CC1CCc2nc(N)c(C#N)c(-c3cccnc3)c2C1 (configuration not stated)	inconclusive: 5.17 µM [falling, full curve, poor fit]
CCc1cc2cccc(C)c2nc1SCC(=O)NNC(=O)c1ccco1	inconclusive: 25.9 µM [falling, partial curve, poor fit]
CCOc1ccc(/C=N/NC(=O)c2cc(-c3ccccc3)nc3ccccc23)cc1O	inconclusive: 20.6 µM [falling, partial curve, poor fit]
Cc1ccc(-c2nc3ccccc3[nH]2)cc1NC(=O)/C=C/c1ccco1	inconclusive: 32.6 µM [falling, single point]
O=C(Cc1cccc2ccccc12)NCC(=O)N1CCN(Cc2cccc(C(F)(F)F)c2)CC1	active: 20.6 µM
O=C1c2cccnc2-c2ncccc21	inactive
O=C(c1ccc(CS(=O)c2ccc(F)cc2)o1)N1CCN(C2CCCCC2)CC1 (configuration not stated)	inactive
CCOC(=O)c1sc(-c2ccc(Cl)cc2Cl)nc1O	inconclusive: 32.6 µM [activator, single point]
CN(C)S(=O)(=O)c1cccc(C(=O)Nc2ccccc2N2CCCCC2)c1	inconclusive: 11.6 µM [falling, partial curve, poor fit]
O=C(O)C1CC=CCC1C(=O)N1CCc2ccccc21 (configuration not stated)	inactive
O=S(=O)(c1cccc(-c2nnc(SCc3nc4ccccc4s3)o2)c1)N1CCOCC1	inconclusive: 3.66 µM [activator, full curve, poor fit]
COc1ccc(-n2c(=O)c3sc4ccccc4c3n(CC(=O)Nc3cccc(C)c3)c2=O)cc1	inactive
Cc1ccc([N+](=O)[O-])cc1NC(=O)CCc1ccccc1	inconclusive: 2.59 µM [falling, partial curve, poor fit]
O=C(Nc1ccccc1F)c1ccc2ncsc2c1	inconclusive: 5.8 µM [activator, partial curve, poor fit]
S=C(NCc1ccc2[nH]c3c(c2c1)CCCC3)Nc1ccccc1	inconclusive: 29.1 µM [falling, single point]
O=C(NCc1ccccc1Cl)C1CC(=O)N(Cc2ccccc2)C1 (configuration not stated)	inactive
O=C(O)/C=C\c1cn(-c2ccccc2)nc1-c1cc2ccccc2o1	inconclusive: 18.4 µM [falling, partial curve, poor fit]
O=C(/C=C/c1ccco1)NC(=S)Nc1ccccc1O	inconclusive: 8.2 µM [activator, partial curve, poor fit]
COCCNC(=O)Cn1cc(S(=O)(=O)Cc2ccccc2Cl)c2ccccc21	inconclusive: 10.3 µM [activator, partial curve, poor fit]
CCOC(=O)N1CCc2c(sc3c2c(=O)n(CCc2ccccc2)c(=O)n3Cc2cc(C)ccc2C)C1	inactive

Compound	Potency
Cc1cccc(-n2ncc3c(N(C)C4CCCCC4)ncnc32)c1	inconclusive: 32.6 µM [falling, single point]
COc1ccccc1C(=O)Nc1ccc(OCC(=O)N2C(C)CCCC2C)cc1 (configuration not stated)	inconclusive: 9.2 µM [falling, partial curve, poor fit]
COc1ccc(C(=O)NC(=O)NC2(C(Cl)(Cl)Cl)OCCO2)cc1	inconclusive: 0.291 µM [activator, full curve, poor fit]
O=C(CSc1nc2ccccc2c(=O)[nH]1)c1ccc(O)cc1O	inconclusive: 29.1 µM [falling, single point]
C[C@]12CC[C@@H]3c4ccc(OC(=O)c5ccccc5)cc4CC[C@H]3[C@@H]1CC[C@@H]2O	inconclusive: 20.6 µM [falling, single point]
COc1ccc(CCNC(=O)CSc2nc3cc(Cl)ccc3o2)cc1OC	inconclusive: 29.1 µM [falling, single point]
Cc1ccc(C)c(S(=O)(=O)N2CCN(c3ncnc4sccc34)CC2)c1	active: 18.4 µM
C/C(=N\NC(=O)c1ccc(-n2cnnn2)cc1)c1ccc(C)cc1	inactive
Cc1ccc(NC(=S)Nc2cccnc2)c(S(=O)(=O)N2CCCCC2)c1	inconclusive: 29.1 µM [falling, single point]
c1ccc(Cc2nnc(Sc3ccccc3)c3ccccc23)cc1	inconclusive: 25.9 µM [falling, partial curve, poor fit]
O=C(CN1C(=O)/C(=C\c2cccc(Cl)c2)Sc2ccccc21)NCCCN1CCOCC1	inactive
O=C(Nc1cccc(NC(=O)c2ccco2)c1)c1ccc2c(c1)OCCO2	inconclusive: 0.731 µM [activator, full curve]
Cc1nc2c(c(C)c1CCC(=O)Nc1cccc(C(F)(F)F)c1)c(=O)n(C)c(=O)n2C	inconclusive: 6.51 µM [falling, single point]
CC(=O)Nc1ccc(S(=O)(=O)N2CCCN(S(=O)(=O)c3ccc(C)cc3)CC2)cc1	inconclusive: 20.6 µM [falling, partial curve, poor fit]
CC(=O)N(Cc1ccc(F)cc1)C1=C(NCc2ccccc2)C(=O)c2ccccc2C1=O	active: 6.31 µM
COc1cc(OC)c(Nc2nc3ccc(C)cc3n3nnnc23)cc1Cl	inconclusive: 29.1 µM [activator, single point]
O=C(NNc1nc2ccccc2o1)c1ccccc1	inactive
Cc1ccsc1/C=N/NC(=O)CNC(=O)c1ccc(S(=O)(=O)N2CCOCC2)cc1	inconclusive: 16.4 µM [falling, partial curve, poor fit]
CCOC(=O)N1CCN(C(=O)CSCc2ccccc2)CC1	inconclusive: 10.3 µM [activator, partial curve, poor fit]
Cc1ccc(NC(=O)c2oc3ccccc3c2NC(=O)C2CCCO2)cc1C (configuration not stated)	inconclusive: 2.06 µM [activator, full curve]
Cc1nnnn1/C(=C\c1ccccc1)C(=O)OCC(=O)NC(C)(C)C	inconclusive: 29.1 µM [falling, single point]
O=S(=O)(NCc1ccccc1)c1cccs1	inactive
COc1cc(/C=C2\SC(=O)N(CC(=O)Nc3cccc(C)c3)C2=O)cc([N+](=O)[O-])c1O	inconclusive: 20.6 µM [falling, single point]

Molecules shown so far that contain an aryl thioether with sulfur outside any ring, in the order listed:
Compound	Potency
CCc1cc2cccc(C)c2nc1SCC(=O)NNC(=O)c1ccco1	inconclusive: 25.9 µM [falling, partial curve, poor fit]
O=S(=O)(c1cccc(-c2nnc(SCc3nc4ccccc4s3)o2)c1)N1CCOCC1	inconclusive: 3.66 µM [activator, full curve, poor fit]
O=C(CSc1nc2ccccc2c(=O)[nH]1)c1ccc(O)cc1O	inconclusive: 29.1 µM [falling, single point]
COc1ccc(CCNC(=O)CSc2nc3cc(Cl)ccc3o2)cc1OC	inconclusive: 29.1 µM [falling, single point]
c1ccc(Cc2nnc(Sc3ccccc3)c3ccccc23)cc1	inconclusive: 25.9 µM [falling, partial curve, poor fit]

Carrying on:

Compound	Potency
Nc1ccc(C#Cc2ccc3sc4ccccc4c(=O)c3c2)cc1	inconclusive: 29.1 µM [falling, single point]
CCC1CN(C(=O)NCc2ccc(C)cc2)c2cc(C)ccc2O1 (configuration not stated)	active: 20.6 µM
CCN1CCN(Cc2nc3c(c(=O)n(C)c(=O)n3C)n2CCc2ccccc2)CC1	inconclusive: 25.9 µM [activator, single point]
O=C(Nc1cccnc1)C1CCCN1S(=O)(=O)c1ccc(Cl)c(Cl)c1 (configuration not stated)	inconclusive: 25.9 µM [falling, partial curve, poor fit]
Clc1cccc(Cl)c1C[n+]1cccc2ccccc21	active: 4.11 µM
O=C(CCNC(=O)c1ccc(Br)cc1)NC1CCCCCC1	inactive
CCN(CC)S(=O)(=O)c1ccc(N2CCN(CCO)CC2)nc1	inconclusive: 18.4 µM [falling, partial curve, poor fit]
CC(=O)Nc1ccc(NC(=O)C(C)Oc2ccc(Cl)cc2Cl)cc1 (configuration not stated)	inactive
CCOc1ccc(NC(=S)N=Nc2c(O)[nH]c3ccccc23)cc1	inconclusive: 29.1 µM [falling, single point]
CCCc1ccc(C(=O)Cn2nc(C(=O)O)c3ccccc3c2=O)cc1	inconclusive: 29.1 µM [falling, single point]
COc1ccc(OC)c(NC(=O)c2nnn(Cc3ccccc3C)c2N)c1	inconclusive: 16.4 µM [falling, partial curve]
Cc1cc(C)c(CN2CCN(C(=O)Cn3cnc4c(NCc5ccccc5)ncnc43)CC2)c(C)c1	active: 3.66 µM
C[C@@H]1CCCCCCCCC(=O)OCCN1C(=O)OC(C)(C)C	inconclusive: 0.0046 µM [falling, full curve, poor fit]
Nc1nnc(SCC(=O)Nc2cccc(S(=O)(=O)N3CCOCC3)c2)s1	inactive
CN(C(=O)c1ccc(NC(=O)Cc2ccc(NC(=O)C3CCCN(C(=O)c4ccccc4)C3)cc2)cc1)C1CCCC1 (configuration not stated)	inconclusive: 29.1 µM [falling, single point]
COc1ccccc1NS(=O)(=O)c1cccc(C(=O)N/N=C/c2c(C)nn(-c3ccccc3)c2N2CCCC2)c1	active: 18.4 µM
Cc1ccc(C)c(N2CCN(C(=O)c3cc4ccc5cccnc5c4[nH]3)CC2)c1	inconclusive: 5.8 µM [activator, full curve]
S=c1sscc1-c1ccccc1	inconclusive: 20.6 µM [activator, partial curve, poor fit]
Cc1nn(-c2ccc(Cl)cc2Cl)c(=O)c2ccccc12	inconclusive: 16.4 µM [falling, partial curve, poor fit]
Cc1cc(C)cc(NC(=O)CN2C(=O)CSc3ccc(S(=O)(=O)N(C)C)cc32)c1	inconclusive: 29.1 µM [falling, single point]
CCOC(=O)C/C(C)=N\Nc1ccc([N+](=O)[O-])cc1[N+](=O)[O-]	inactive
